Article PMC12166272
No constants are given. Whether binding was seen depends on the method and setting. In cells and extracts the contact can be indirect. A yes stands for co-enrichment or nearness to the bait. Other partners may have been found. Tags and fused reporters may be left off the sequences shown.

By UniProt entry, the sequences of proteins in these tests, tags left out.
UniProt Q13547: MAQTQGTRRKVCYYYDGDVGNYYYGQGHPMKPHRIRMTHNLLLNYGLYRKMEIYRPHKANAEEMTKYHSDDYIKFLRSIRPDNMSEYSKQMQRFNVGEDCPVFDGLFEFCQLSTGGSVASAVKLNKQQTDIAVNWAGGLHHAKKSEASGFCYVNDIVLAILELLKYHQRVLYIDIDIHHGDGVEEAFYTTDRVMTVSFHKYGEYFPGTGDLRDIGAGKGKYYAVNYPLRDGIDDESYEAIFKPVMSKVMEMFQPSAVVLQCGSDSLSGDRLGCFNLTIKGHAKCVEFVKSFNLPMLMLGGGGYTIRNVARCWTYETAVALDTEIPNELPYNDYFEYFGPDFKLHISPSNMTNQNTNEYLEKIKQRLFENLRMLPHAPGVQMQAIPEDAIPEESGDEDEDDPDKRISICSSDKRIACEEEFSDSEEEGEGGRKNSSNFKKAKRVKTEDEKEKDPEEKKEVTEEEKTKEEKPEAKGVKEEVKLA

T1: FLAG-IRF7-K375R (UniProt Q92985)
T1 sequence: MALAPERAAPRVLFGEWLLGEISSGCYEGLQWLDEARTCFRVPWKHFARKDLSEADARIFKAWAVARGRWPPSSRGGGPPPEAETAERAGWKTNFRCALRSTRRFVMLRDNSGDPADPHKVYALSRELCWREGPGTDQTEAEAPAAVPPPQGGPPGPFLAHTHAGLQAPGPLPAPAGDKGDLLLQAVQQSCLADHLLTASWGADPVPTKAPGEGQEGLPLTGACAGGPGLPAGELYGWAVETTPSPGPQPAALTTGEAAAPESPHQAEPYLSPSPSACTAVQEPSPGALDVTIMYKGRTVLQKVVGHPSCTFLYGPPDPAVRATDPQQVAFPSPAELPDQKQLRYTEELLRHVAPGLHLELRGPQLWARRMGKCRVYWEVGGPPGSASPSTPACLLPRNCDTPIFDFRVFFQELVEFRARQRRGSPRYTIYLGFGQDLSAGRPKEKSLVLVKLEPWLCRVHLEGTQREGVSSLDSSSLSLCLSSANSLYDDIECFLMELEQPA

T2: FLAG-IRF7 (interferon regulatory factor 7, full-length) (UniProt Q92985)
T2 sequence: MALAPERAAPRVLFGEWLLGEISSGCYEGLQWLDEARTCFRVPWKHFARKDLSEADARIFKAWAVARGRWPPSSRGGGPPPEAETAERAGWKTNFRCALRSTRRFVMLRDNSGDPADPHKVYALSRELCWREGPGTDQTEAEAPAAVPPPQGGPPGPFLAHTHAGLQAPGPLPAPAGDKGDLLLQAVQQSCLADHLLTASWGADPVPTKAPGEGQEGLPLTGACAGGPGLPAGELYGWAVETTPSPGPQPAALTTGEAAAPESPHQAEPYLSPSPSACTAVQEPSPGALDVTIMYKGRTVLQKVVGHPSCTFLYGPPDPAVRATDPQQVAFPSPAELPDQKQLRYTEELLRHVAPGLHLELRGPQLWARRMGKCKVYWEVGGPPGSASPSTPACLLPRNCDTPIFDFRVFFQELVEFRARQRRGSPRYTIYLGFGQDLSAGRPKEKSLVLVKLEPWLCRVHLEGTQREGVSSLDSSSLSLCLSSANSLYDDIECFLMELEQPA


Columns and labels:
FLAG-IRF7-K375R = target: T1, FLAG-IRF7-K375R; test: affinity purification with mass spectrom
[1] = target: T2, FLAG-IRF7 (interferon regulatory factor 7, full-length); test: affinity purification with mass spectrom

binding (FLAG-IRF7-K375R)	binding [1]	Molecule
binds	–	HDAC1 (histone deacetylase 1), found by mass spectrometry in HEK293T (from UniProt Q13547 1-482)
–	binds	NEURL3 (neuralized E3 ubiquitin-protein ligase 3), found by mass spectrometry in HEK293T (protein, UniProt Q96EH8 1-262) MGAQLCFEANAKAPREALRFHAEAKGAQVRLDTRGCIAHRRTTFHDGIVFSQRPVRLGERVALRVLREESGWCGGLRVGFTRLDPACVSVPSLPPFLCPDLEEQSPTWAAVLPEGCALTGDLVRFWVDRRGCLFAKVNAGCRLLLREGVPVGAPLWAVMDVYGTTKAIELLDPTASRLPTPMPWDLSNKAVPEPKATPGEECAICFYHAANTRLVPCGHTYFCRYCAWRVFSDTAKCPVCRWQIEAVAPAQGPPALRVEEGS
